The supplement of paper PMC10849652
Some of the results follow.

By UniProt entry, the sequences of proteins in these tests, tags left out. Where a name states a change or a piece, a line headed by the entry shows the natural chain unless it says otherwise.
UniProt Q8IWA5: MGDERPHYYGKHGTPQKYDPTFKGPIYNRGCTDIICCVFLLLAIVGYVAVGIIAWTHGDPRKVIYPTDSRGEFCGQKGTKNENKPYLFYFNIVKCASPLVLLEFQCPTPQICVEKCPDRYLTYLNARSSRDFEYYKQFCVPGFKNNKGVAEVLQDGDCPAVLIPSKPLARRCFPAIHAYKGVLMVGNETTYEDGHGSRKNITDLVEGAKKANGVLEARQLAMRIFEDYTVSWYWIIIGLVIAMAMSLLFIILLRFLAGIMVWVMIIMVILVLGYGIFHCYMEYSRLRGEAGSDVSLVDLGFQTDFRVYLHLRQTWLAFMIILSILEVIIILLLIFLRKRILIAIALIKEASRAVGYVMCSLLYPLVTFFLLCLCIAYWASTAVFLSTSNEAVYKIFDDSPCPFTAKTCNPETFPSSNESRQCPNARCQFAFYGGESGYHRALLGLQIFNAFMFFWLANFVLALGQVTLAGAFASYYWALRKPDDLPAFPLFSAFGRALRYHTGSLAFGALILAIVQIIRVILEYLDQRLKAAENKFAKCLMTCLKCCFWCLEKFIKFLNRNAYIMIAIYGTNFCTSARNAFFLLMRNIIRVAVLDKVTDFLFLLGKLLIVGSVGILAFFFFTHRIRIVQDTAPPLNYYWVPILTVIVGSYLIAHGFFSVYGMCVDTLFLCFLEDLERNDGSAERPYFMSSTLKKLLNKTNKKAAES
UniProt Q00325: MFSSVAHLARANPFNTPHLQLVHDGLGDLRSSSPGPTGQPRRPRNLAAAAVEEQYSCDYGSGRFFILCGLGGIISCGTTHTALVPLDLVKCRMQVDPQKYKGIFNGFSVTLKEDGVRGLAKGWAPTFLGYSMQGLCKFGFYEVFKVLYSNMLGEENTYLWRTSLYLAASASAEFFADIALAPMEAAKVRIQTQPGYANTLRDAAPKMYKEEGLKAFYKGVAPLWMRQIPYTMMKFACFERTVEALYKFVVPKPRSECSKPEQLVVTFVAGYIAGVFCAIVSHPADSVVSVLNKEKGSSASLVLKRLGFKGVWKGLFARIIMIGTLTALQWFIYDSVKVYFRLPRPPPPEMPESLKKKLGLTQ
UniProt P31641: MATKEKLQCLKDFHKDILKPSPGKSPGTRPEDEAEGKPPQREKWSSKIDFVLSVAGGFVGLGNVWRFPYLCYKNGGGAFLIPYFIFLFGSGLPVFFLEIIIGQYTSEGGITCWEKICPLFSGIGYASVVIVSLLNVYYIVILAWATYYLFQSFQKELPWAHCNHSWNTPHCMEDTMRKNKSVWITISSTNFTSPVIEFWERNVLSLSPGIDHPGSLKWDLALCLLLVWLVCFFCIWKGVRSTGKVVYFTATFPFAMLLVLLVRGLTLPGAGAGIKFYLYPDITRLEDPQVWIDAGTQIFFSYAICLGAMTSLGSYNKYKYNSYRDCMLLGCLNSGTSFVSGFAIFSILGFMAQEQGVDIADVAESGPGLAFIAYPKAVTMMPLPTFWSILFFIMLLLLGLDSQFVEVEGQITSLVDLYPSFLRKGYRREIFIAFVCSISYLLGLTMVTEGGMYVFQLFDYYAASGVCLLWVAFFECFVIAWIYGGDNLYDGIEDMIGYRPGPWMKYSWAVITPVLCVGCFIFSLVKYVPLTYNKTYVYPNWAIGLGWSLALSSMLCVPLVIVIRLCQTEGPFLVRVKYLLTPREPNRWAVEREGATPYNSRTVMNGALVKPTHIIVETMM
UniProt Q8NEW0: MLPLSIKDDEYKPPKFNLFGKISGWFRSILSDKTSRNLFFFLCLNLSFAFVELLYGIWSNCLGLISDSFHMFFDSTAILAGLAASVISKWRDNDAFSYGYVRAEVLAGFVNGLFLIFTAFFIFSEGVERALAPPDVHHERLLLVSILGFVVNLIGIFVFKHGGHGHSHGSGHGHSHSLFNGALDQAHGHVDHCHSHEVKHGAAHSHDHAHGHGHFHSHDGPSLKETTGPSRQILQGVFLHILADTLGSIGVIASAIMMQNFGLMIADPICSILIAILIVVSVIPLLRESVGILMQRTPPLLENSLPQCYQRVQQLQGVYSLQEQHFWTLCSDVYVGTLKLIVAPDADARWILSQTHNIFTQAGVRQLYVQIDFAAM
UniProt Q9NVC3: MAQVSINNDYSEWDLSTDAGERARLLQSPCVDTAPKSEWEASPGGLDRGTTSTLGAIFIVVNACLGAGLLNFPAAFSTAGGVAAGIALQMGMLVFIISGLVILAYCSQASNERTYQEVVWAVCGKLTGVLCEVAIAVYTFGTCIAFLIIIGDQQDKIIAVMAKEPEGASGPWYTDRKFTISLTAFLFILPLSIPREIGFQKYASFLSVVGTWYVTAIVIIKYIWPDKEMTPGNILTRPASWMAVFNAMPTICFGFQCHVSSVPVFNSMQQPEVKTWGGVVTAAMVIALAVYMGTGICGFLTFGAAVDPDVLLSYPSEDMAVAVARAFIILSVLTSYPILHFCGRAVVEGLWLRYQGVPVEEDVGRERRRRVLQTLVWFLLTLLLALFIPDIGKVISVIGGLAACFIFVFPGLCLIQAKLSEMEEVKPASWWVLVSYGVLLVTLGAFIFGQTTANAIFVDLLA
UniProt Q8NBI5: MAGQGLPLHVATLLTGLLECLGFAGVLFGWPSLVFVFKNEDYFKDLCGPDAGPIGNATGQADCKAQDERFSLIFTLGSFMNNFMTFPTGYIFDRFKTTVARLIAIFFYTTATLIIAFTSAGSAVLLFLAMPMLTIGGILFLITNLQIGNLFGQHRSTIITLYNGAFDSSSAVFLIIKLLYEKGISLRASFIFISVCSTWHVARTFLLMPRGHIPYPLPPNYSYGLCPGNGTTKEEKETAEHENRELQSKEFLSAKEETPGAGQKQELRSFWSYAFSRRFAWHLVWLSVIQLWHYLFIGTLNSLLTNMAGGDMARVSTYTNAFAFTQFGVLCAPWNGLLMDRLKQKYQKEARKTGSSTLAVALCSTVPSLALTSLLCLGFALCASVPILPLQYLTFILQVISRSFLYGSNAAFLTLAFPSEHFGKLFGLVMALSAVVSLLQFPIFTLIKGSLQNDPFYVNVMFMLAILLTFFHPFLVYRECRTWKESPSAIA
UniProt O14975, whole entry, looked up: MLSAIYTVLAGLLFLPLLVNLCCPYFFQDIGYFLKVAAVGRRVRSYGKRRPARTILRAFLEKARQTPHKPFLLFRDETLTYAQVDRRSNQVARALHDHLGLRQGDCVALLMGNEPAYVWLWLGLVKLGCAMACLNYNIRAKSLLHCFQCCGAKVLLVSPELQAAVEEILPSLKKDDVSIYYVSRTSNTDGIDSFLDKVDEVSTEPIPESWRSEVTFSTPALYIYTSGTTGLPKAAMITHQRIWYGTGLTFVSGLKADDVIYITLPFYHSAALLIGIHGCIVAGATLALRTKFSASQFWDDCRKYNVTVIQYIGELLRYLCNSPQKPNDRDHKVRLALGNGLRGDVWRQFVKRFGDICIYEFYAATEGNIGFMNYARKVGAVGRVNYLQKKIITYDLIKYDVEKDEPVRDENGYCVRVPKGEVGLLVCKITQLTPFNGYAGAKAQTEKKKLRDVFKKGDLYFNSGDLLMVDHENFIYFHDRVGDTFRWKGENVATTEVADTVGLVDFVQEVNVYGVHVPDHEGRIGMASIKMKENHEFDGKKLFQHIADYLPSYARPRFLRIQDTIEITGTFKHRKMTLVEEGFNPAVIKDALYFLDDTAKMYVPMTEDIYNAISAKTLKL
UniProt Q9BXS9: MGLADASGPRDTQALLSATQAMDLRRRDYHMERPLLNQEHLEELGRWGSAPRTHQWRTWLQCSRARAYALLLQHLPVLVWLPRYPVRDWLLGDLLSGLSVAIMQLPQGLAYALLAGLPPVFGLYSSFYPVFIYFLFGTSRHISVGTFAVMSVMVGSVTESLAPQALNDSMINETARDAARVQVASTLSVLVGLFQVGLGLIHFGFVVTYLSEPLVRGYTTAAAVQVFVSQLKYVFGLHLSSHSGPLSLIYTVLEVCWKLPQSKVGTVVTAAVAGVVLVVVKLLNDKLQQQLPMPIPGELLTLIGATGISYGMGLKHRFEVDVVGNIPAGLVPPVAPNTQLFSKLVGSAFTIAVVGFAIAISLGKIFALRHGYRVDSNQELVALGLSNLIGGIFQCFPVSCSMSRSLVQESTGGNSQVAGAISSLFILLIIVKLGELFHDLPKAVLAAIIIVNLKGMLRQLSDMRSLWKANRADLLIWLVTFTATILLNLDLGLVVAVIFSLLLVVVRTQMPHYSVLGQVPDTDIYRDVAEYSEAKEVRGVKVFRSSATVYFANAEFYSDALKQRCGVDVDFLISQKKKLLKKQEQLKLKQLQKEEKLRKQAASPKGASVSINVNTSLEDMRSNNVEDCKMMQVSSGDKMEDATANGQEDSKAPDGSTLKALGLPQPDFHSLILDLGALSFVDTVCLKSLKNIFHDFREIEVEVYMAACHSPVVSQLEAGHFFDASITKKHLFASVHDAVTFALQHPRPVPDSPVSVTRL
UniProt P12235: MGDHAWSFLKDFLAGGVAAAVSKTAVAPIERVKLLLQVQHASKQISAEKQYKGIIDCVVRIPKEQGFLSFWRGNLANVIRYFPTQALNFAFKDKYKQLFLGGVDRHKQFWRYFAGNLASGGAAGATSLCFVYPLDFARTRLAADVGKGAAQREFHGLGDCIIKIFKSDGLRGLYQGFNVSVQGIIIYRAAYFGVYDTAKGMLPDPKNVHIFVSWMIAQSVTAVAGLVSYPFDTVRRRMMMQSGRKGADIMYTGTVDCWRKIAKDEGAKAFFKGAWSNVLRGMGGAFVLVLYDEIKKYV
UniProt O00193: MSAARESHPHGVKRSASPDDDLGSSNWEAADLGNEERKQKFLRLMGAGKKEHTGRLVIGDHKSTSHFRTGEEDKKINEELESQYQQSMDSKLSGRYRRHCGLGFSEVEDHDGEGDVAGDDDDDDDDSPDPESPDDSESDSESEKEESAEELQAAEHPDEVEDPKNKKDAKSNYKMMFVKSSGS
UniProt L0R6Q1: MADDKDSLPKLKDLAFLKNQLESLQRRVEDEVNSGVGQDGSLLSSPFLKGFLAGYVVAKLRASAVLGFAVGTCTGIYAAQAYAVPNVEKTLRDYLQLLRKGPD
UniProt Q13485: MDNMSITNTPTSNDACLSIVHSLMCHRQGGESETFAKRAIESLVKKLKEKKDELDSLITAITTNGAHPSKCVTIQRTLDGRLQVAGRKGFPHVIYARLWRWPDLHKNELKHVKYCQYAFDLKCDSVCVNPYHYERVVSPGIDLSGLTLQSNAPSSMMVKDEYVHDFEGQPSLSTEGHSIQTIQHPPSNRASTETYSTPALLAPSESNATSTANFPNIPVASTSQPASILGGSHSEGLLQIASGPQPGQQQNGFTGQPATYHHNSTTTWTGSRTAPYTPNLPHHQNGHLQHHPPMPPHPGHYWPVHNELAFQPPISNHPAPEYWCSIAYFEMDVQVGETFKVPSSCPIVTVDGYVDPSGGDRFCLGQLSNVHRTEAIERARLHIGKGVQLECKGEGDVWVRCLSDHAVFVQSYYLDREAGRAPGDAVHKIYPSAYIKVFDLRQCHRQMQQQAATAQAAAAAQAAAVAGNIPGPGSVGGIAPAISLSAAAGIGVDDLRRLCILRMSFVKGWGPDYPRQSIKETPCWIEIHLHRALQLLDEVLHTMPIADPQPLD
UniProt P48029: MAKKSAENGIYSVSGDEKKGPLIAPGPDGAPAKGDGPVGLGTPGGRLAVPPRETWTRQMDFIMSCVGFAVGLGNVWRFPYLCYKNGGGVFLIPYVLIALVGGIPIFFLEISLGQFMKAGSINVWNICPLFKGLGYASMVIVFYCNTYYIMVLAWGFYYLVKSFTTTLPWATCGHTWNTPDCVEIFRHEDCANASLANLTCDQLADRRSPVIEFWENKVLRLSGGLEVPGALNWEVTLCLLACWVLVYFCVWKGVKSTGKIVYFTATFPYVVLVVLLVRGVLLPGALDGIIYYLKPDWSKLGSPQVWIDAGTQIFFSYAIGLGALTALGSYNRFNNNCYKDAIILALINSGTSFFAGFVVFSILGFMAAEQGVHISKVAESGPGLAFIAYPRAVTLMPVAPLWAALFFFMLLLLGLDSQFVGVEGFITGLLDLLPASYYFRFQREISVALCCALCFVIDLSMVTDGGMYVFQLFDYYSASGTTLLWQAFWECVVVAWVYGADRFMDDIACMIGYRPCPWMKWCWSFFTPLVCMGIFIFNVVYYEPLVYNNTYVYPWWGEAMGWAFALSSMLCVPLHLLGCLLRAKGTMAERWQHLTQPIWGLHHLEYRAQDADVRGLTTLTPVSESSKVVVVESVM
UniProt Q8WU79: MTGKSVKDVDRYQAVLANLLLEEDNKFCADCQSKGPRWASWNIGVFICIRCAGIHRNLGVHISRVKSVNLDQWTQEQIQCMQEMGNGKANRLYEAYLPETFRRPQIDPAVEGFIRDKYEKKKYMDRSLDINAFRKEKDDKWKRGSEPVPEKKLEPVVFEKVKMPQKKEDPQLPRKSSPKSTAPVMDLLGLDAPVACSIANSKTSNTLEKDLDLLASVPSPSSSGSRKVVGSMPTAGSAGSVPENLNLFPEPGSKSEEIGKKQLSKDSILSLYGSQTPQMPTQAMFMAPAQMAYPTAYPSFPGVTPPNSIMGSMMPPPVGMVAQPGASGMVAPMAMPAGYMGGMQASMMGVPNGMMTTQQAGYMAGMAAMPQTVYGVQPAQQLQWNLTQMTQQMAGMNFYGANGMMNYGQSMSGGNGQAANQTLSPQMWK

compound: NC(=O)Nc1cc(-c2cccc(F)c2)sc1C(=O)N[C@H]1CCCNC1; test: log2 fold change, soluble protein after heating vs DMSO (PISA); higher = thermal stabilisation; K562 lysate, 10 uM; active = over 0.2 and 3.5 SD of the protein, either way, in both replicates (recomputed)
Method in brief: (§1)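 K562 pellets were dounce-homogenised in PBS pH 7.4 with 1 mM MgCl2, and the crude extract at 1 mg/mL protein was treated with 10 μM compound for 30 min. Aliquots were heated for 3 min across 48°C-58°C, pooled, and brought to 0.5% NP-40 at 4°C; soluble protein was the supernatant after 21,000xg for 90 min. Soluble protein was quantified by TMTpro 16plex LC-MS/MS with channel sums equalised, and reported as log2 fold change in thermal stability against DMSO controls, with values from duplicates.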

log2 fold change, inactive:
SLIRP (UniProt Q9GZT3) -0.009
SLC25A13 isoform 2 (UniProt Q9UJS0) 0.012
SLC2A1 (UniProt P11166) 0.003
SLC25A22 (UniProt Q9H936) 0.009
SLC44A2 (UniProt Q8IWA5) -0.083
SLC33A1 (UniProt O00400) 0.018
SLC25A3 isoform 2 (UniProt Q00325) 0.014
SLC38A9 (UniProt Q8NBW4) 0
SLC6A6 (UniProt P31641) 0.039
SLC30A7 (UniProt Q8NEW0) -0.183
SLC7A5 (UniProt Q01650) 0
SLC38A7 (UniProt Q9NVC3) -0.005
SLC43A3 isoform 2 (UniProt Q8NBI5) -0.002
SLC4A1AP (UniProt Q9BWU0) -0.021
SLC27A2 (UniProt O14975) -0.06
SLC36A4 (UniProt Q6YBV0) -0.009
SLC26A6 (UniProt Q9BXS9) 0.033
SLC25A21 (UniProt Q9BQT8) 0.001
SLC25A4 (UniProt P12235) 0.007
SLC38A10 (UniProt Q9HBR0) -0.039
SLC25A42 (UniProt Q86VD7) 0.051
SMAP (UniProt O00193) -0.071
SLC3A2 isoform 3 (UniProt P08195) -0.006
SLC25A25 isoform 3 (UniProt Q6KCM7) 0.021
SLC9A1 (UniProt P19634) 0.081
SLC4A7 isoform 7 (UniProt Q9Y6M7) 0.01
SLC35A4 (UniProt L0R6Q1) -0.016
SLC9A3R2 (UniProt Q15599) 0.021
SMAD4 (UniProt Q13485) -0.009
SLC6A8 isoform 2 (UniProt P48029) 0.193
SLC4A2 (UniProt P04920) -0.015
SLC30A1 (UniProt Q9Y6M5) 0.025
SLC25A31 (UniProt Q9H0C2) -0.031
SMAP2 (UniProt Q8WU79) 0.076
SLC6A8 (UniProt P48029) -0.057
SLC25A5 (UniProt P05141) 0.01
SLC25A1 (UniProt P53007) 0.008
SMAP1 isoform 2 (UniProt Q8IYB5) -0.01

compound: NC(=O)c1cnc(N[C@@H]2CCCC[C@@H]2N)nc1Nc1cccc(-n2nccn2)c1; test: as above
Method in brief: as §1

log2 fold change, inactive:
SLIRP (UniProt Q9GZT3) 0.024
SLC25A13 isoform 2 (UniProt Q9UJS0) -0.02
SLC2A1 (UniProt P11166) 0.023
SLC25A22 (UniProt Q9H936) -0.002
SLC44A2 (UniProt Q8IWA5) -0.014
SLC33A1 (UniProt O00400) -0.001
SLC25A3 isoform 2 (UniProt Q00325) -0.023
SLC38A9 (UniProt Q8NBW4) -0.059
SLC6A6 (UniProt P31641) -0.006
SLC30A7 (UniProt Q8NEW0) 0.033
SLC7A5 (UniProt Q01650) -0.029
SLC38A7 (UniProt Q9NVC3) 0.034
SLC43A3 isoform 2 (UniProt Q8NBI5) -0.019
SLC4A1AP (UniProt Q9BWU0) -0.012
SLC27A2 (UniProt O14975) -0.033
SLC36A4 (UniProt Q6YBV0) -0.014
SLC26A6 (UniProt Q9BXS9) 0.054
SLC25A21 (UniProt Q9BQT8) -0.009
SLC25A4 (UniProt P12235) -0.019
SLC38A10 (UniProt Q9HBR0) 0.01
SLC25A42 (UniProt Q86VD7) 0.026
SMAP (UniProt O00193) 0.036
SLC3A2 isoform 3 (UniProt P08195) -0.01
SLC25A25 isoform 3 (UniProt Q6KCM7) 0.007
SLC9A1 (UniProt P19634) 0.047
SLC4A7 isoform 7 (UniProt Q9Y6M7) -0.012
SLC35A4 (UniProt L0R6Q1) -0.035
SLC9A3R2 (UniProt Q15599) -0.002
SMAD4 (UniProt Q13485) 0.01
SLC6A8 isoform 2 (UniProt P48029) -0.058
SLC4A2 (UniProt P04920) -0.02
SLC30A1 (UniProt Q9Y6M5) -0.018
SLC25A31 (UniProt Q9H0C2) 0.027
SMAP2 (UniProt Q8WU79) 0.026
SLC6A8 (UniProt P48029) 0.021
SLC25A5 (UniProt P05141) -0.01
SLC25A1 (UniProt P53007) -0.06
SMAP1 isoform 2 (UniProt Q8IYB5) -0.013
